Sequences and labels used below:
T1: eukaryotic initiation factor 2B γ-subunit (eIF2Bγ), FLAG-tagged (Saccharomyces cerevisiae) (UniProt P09032)
T1 sequence (chain, found in the purified protein (Table 1), pS296, acK346): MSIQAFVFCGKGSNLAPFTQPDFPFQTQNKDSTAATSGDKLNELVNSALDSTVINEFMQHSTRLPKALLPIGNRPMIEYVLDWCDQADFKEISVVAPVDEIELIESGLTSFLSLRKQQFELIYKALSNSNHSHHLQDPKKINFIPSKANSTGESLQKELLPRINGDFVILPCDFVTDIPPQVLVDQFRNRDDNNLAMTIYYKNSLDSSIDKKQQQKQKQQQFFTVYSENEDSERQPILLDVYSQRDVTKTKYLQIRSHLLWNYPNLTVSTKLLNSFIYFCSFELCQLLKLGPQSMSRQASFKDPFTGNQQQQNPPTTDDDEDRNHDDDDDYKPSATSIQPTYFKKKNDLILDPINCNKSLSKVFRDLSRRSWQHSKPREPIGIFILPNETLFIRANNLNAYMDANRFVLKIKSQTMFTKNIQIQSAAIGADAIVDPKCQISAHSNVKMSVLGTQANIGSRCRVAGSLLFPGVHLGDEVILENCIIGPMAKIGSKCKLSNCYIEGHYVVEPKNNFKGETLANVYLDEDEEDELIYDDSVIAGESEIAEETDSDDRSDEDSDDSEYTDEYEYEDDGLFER

B1: eukaryotic initiation factor 2B ε-subunit (eIF2Bε) (protein, UniProt P32501 1-712)
chain: MAGKKGQKKSGLGNHGKNSDMDVEDRLQAVVLTDSYETRFMPLTAVKPRCLLPLANVPLIEYTLEFLAKAGVHEVFLICSSHANQINDYIENSKWNLPWSPFKITTIMSPEARCTGDVMRDLDNRGIITGDFILVSGDVLTNIDFSKMLEFHKKMHLQDKDHISTMCLSKASTYPKTRTIEPAAFVLDKSTSRCIYYQDLPLPSSREKTSIQIDPELLDNVDEFVIRNDLIDCRIDICTSHVPLIFQENFDYQSLRTDFVKGVISSDILGKHIYAYLTDEYAVRVESWQTYDTISQDFLGRWCYPLVLDSNIQDDQTYSYESRHIYKEKDVVLAQSCKIGKCTAIGSGTKIGEGTKIENSVIGRNCQIGENIRIKNSFIWDDCIIGNNSIIDHSLIASNATLGSNVRLNDGCIIGFNVKIDDNMDLDRNTKISASPLKNAGSRMYDNESNEQFDQDLDDQTLAVSIVGDKGVGYIYESEVSDDEDSSTEACKEINTLSNQLDELYLSDDSISSATKKTKKRRTMSVNSIYTDREEIDSEFEDEDFEKEGIATVERAMENNHDLDTALLELNTLRMSMNVTYHEVRIATITALLRRVYHFIATQTLGPKDAVVKVFNQWGLLFKRQAFDEEEYIDLMNIIMEKIVEQSFDKPDLILFSALVSLYDNDIIEEDVIYKWWDNVSTDPRYDEVKKLTVKWVEWLQNADEESSSEEE
modifications: found in the purified protein (Table 1): pS435, pS449, pS525, pS538
B2: eukaryotic initiation factor 2B δ-subunit (eIF2Bδ) (protein, UniProt P12754 1-651)
chain: MSESEAKSRSATPPSKAKQATPTTTAAANGEKKLTNKELKELKKQEKAAKRAAMKQANGISIEQQQQQAQMKKEKKQLQREQQQKREQKQKNANKKKQNERNVKKSTLFGHLETTEERRATILALTSAVSSPKTSRITAAGLMVPVVASALSGSNVLTASSLMPVGPNASSTVSASAPASTTTTLPASSAALSAGTSSASTNTPTAIQQEIASSNASDVAKTLASISLEAGEFNVIPGISSVIPTVLEQSFDNSSLISSVKELLLNKDLIHPSILLLTSHLAHYKIVGSIPRCIAMLEVFQIVIKDYQTPKGTTLSRNLTSYLSHQIDLLKKARPLSVTMGNAIRWLKQEISLIDPSTPDKAAKKDLCEKIGQFAKEKIELADQLIIDNASTQIEESTTIVTYGSSKVLTELLLHNAISLKKNIKVIVVDSRPLFEGRKMAETLRNAGVNVMYALITSLDTIFNMDVDYVFLGAHSILSNGFLYSRAGTAMLAMSAKRRNIPVLVCCESLKFSQRVQLDSVTFNELADPNDLVNIDYENPVERRGNKGALLNQFIKERKFEKKKLAMENKPKGNKIGGKKGSEGESKDASNEEDSNSKNILDGWQELPSLNIVNILYDLTPPEYIKKVITEFGALPPSSVPVILREYKGSA
modifications: found in the purified protein (Table 1): pS131
B3: eukaryotic initiation factor 2B α-subunit (eIF2Bα) (protein, UniProt P14741 1-305)
chain: MSEFNITETYLRFLEEDTEMTMPIAAIEALVTLLRIKTPETAAEMINTIKSSTEELIKSIPNSVSLRAGCDIFMRFVLRNLHLYGDWENCKQHLIENGQLFVSRAKKSRNKIAEIGVDFIADDDIILVHGYSRAVFSLLNHAANKFIRFRCVVTESRPSKQGNQLYTLLEQKGIPVTLIVDSAVGAVIDKVDKVFVGAEGVAESGGIINLVGTYSVGVLAHNARKPFYVVTESHKFVRMFPLSSDDLPMAGPPLDFTRRTDDLEDALRGPTIDYTAQEYITALITDLGVLTPSAVSEELIKMWYD
modifications: found in the purified protein (Table 1): N-term-ac-S2, pY166
B4: eukaryotic initiation factor 2B β-subunit (eIF2Bβ) (protein, UniProt P32502 1-381)
chain: MSSQAFTSVHPNAATSDVNVTIDTFVAKLKRRQVQGSYAIALETLQLLMRFISAARWNHVNDLIEQIRDLGNSLEKAHPTAFSCGNVIRRILAVLRDEVEEDTMSTTVTSTSVAEPLISSMFNLLQKPEQPHQNRKNSSGSSSMKTKTDYRQVAIQGIKDLIDEIKNIDEGIQQIAIDLIHDHEILLTPTPDSKTVLKFLITARERSNRTFTVLVTEGFPNNTKNAHEFAKKLAQHNIETLVVPDSAVFALMSRVGKVIIGTKAVFVNGGTISSNSGVSSVCECAREFRTPVFAVAGLYKLSPLYPFDVEKFVEFGGSQRILPRMDPRKRLDTVNQITDYVPPENIDIYITNVGGFNPSFIYRIAWDNYKQIDVHLDKNKA
modifications: found in the purified protein (Table 1): N-term-ac-S2

No constants are given. Whether binding was seen depends on the method and setting. Binding seen in cells or lysates may run through a third protein. These calls come from enrichment with a bait or labelling near it, and not all partners need be listed. Sequences can lack the tags named with a protein.

The assay has as its target T1, eukaryotic initiation factor 2B γ-subunit (eIF2Bγ), FLAG-tagged (Saccharomyces cerevisiae). The experiment in a line: affinity purification with mass spectrometry; FLAG-tagged eIF2B (tag on GCD1) from yeast lysate on anti-FLAG resin in high-salt buffer (500 mM KCl), washed with 500 mM ammonium acetate, eluted with FLAG peptide; LC-MS/MS of the subunits for PTM analysis.
Regarding B1, the binding entry is “binds”.

With B2, the binding entry was “binds”.

As to B3, the binding entry was “binds”.

As to B4, the binding result is “binds”.

The record behind these values is paper PMC4860841, “eIF2 interactions with initiator tRNA and eIF2B are regulated by post-translational modifications and conformational dynamics” (Cell Discovery, 2015).
